The record followed here is publication PMC5033595, “The Effectiveness of Natural Diarylheptanoids against Trypanosoma cruzi: Cytotoxicity, Ultrastructural Alterations and Molecular Modeling Studies” (PLoS ONE, 2016).

In this series the test system is T. cruzi epimastigotes. In words: Scanning and transmission electron microscopy of treated epimastigotes. The format is cell-based, Trypanosoma cruzi. Conditions: treated at IC50 concentration, 24-72 h.

Take `COc1cc(/C=C/C(=O)CC(=O)/C=C/c2ccc(O)c(OC)c2)ccc1O` [CUR, Curcumin]: the “ultrastructural changes of epimastigotes” value is reported as “disorganized and/or displaced microtubules”. Besides, the “ultrastructural changes of epimastigotes” value (listed as curcumin) was “reduced cell volume”.
